Test results from PubChem BioAssay AID1487 (National Center for Advancing Translational Sciences (NCATS), 2009).
Values joined by “and” are separate entries in the source; they are usually repeats but may differ in a detail not shown here. Equal entries are not always repeated. Screen size: about 200,000 compounds; about 25 (0.01%) were called active. This list was built around the results that the source calls inconclusive (neither active nor inactive); the mix of calls is not that of the screen. Calls follow the shape of the dose curve; as a rule, active = well fitted inhibition curve with a large enough effect in the signal ratio, with a control signal flat (not every such curve was filed as active); inconclusive = small, poorly fitted or top-dose-only effect, or effect the other way, or a change in a side signal; inactive = flat fitted curve, though single readings scatter; the % refers to the signal ratio. A potency beside an inconclusive call is a rough fit, not a confirmed value.
% is scaled to controls: 0 for no effect and ±100 for the full control effect; potency is read from the fitted curve at half-maximal effect.

Assay: qHTS Assay for Modulators of Lamin A Splicing
Details: HeLa LMNA splicing GFP/RFP minigene ratio, 48 h; ratio change, negative = inhibition: at 46.1 µM (top of the series) unless noted
Outline: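 Read-out is the ratio of GFP to DsRed2 object intensity, acquired by 488 nm laser-scanning cytometry on HeLa lamin A-EGFP minigene reporter cells. Compound incubation 48 hrs at 37 °C in Opti-MEM with 2% FBS; DMSO 0.5% final.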
In the case of `CSCC(=O)N1CCCC(C(=O)c2cc(F)ccc2F)C1` (stereo not drawn), the ratio change, negative = inhibition is reported as inconclusive: 6.77% [at 46 µM]. With `Cc1ccc(CN2C(=O)c3ccccc3C2C(=O)NCc2cccnc2)cc1` (stereo not drawn) the ratio change, negative = inhibition was “inactive”. For `COc1ccccc1N1CCN(Cc2cc(=O)n3ccsc3n2)CC1`, the Potency was inconclusive: 35.5 µM [cytotoxic, single point]. For `Oc1ccc(-c2nc3ncccn3c2Nc2ccc3c(c2)OCCO3)cc1`, the ratio change, negative = inhibition was “inactive”. With `CCOC(=O)C1CCN(C(=O)c2ccc3c(c2)sc2nc(-c4ccccc4)cn23)CC1` the ratio change, negative = inhibition was inconclusive: -3.06% [at 46 µM]. For `O=C(NCCCn1ccnc1)/C(=C\c1cccnc1)NC(=O)c1ccccc1F`, the ratio change, negative = inhibition was inconclusive: 14.9% [at 46 µM]. For `COC(=O)c1ccc(C(=O)NC(=S)Nc2nc3c(s2)CC(C)CC3)cc1` (stereo not drawn), the ratio change, negative = inhibition was “inactive”. With `Cc1ccc(Cc2nc3ccccc3nc2SCC(=O)N2CCN(c3ccccc3F)CC2)cc1` the ratio change, negative = inhibition was “inactive”. In the case of `Cn1nc(C(=O)N2CCN(c3cccc(Cl)c3)CC2)c2c1-c1ccccc1S(=O)(=O)C2`, the ratio change, negative = inhibition is reported as inconclusive: 25.2% [at 46 µM]. With `CC(=O)Nc1cnc2ccccc2n1` the ratio change, negative = inhibition was “inactive”. For `O=C(c1ccccc1C(F)(F)F)N1CCN(S(=O)(=O)c2ccccc2)CC1`, the ratio change, negative = inhibition was “inactive”. In the case of `Cc1ccc(N(C(C)C(=O)N2CCCCC2)S(C)(=O)=O)cc1C` (stereo not drawn), the ratio change, negative = inhibition is reported as “inactive”. With `O=C(c1ccc(Oc2ccc(C(F)(F)F)cc2[N+](=O)[O-])cc1)N1CCOCC1` the Potency was inconclusive: 22.4 µM [fluorescent, single point]. In the case of `COc1cc(/C=N/OCC(=O)Nc2ccc(OC(F)F)cc2)ccc1OCc1ccccc1`, the Potency is reported as inconclusive: 35.5 µM [falling, single point]. With `CC(C)[C@H](NC(=O)c1ccccc1Cl)C(=O)Nc1nc(-c2ccccn2)cs1` the ratio change, negative = inhibition was inconclusive: 36.6% [at 46 µM]. In the case of `COC(=O)CN1C(=O)S/C(=C/c2cc(C)n(C)c2C)C1=O`, the ratio change, negative = inhibition is reported as “inactive”. With `CCN(CCCCOC(=O)c1ccc(OC)c(OC)c1)[C@@H](C)Cc1ccc(OC)cc1` the Potency was inconclusive: 0.0002 µM. In the case of `Cc1cc2oc(=O)cc(CN3CCN(Cc4ccccc4)CC3)c2cc1Cl`, the ratio change, negative = inhibition is reported as inconclusive: 14.9%. With `COc1ccc(NC(=S)Nc2ccc(Oc3ccccc3)cc2)cc1` the ratio change, negative = inhibition was inconclusive: 37.4%. For `CC(=O)N1CCC2(CC1)C/C(=N\NC(=S)Nc1ccc(C)cc1)c1cc(O)ccc1O2`, the ratio change, negative = inhibition was inconclusive: 53.6% [at 46 µM]. In the case of `CC(C)(C)c1ccc(C(O)CCCN2CCC(C(O)(c3ccccc3)c3ccccc3)CC2)cc1` (stereo not drawn), the ratio change, negative = inhibition is reported as inconclusive: -10.8% and inconclusive: -2.28%. For `Cc1ccc(Cn2c(O)c(N=O)c3ccccc32)cc1`, the ratio change, negative = inhibition was “inactive”. With `O=C(CC1CCCC1)Nc1ccc2c(c1)CCC2` the ratio change, negative = inhibition was “inactive”. In the case of `O=C(N/N=C/c1cnc2ccccc2n1)c1cccc(F)c1`, the ratio change, negative = inhibition is reported as “inactive”. In the case of `CCN(CC)CCOC(=O)c1ccc(NC(=O)c2ccc(Cl)c(S(=O)(=O)N3CCCCCC3)c2)cc1`, the Potency is reported as inconclusive: 31.6 µM [inhibitor, single point]. With `NC(=O)c1ccc(NCCCN2CCOCC2)c([N+](=O)[O-])c1` the ratio change, negative = inhibition was “inactive”. For `CCN(CC)CC(=O)N1CCCC(C(=O)c2ccccc2OC)C1` (stereo not drawn), the ratio change, negative = inhibition was inconclusive: 27.2% [at 46 µM]. In the case of `CCOC(=O)c1c(C)oc2nc(C)nc(Nc3cccc(OC)c3)c12`, the ratio change, negative = inhibition is reported as inconclusive: 4.4% [at 46 µM]. In the case of `CCOc1cc2c(cc1OCC)C(c1ccccc1)N(c1ccc(C(=O)O)cc1)C(=O)C2` (stereo not drawn), the Potency is reported as inconclusive: 5.62 µM [cytotoxic, partial curve]. For `S=C(Nc1ccccc1Cl)N(CCN1CCCCC1)Cc1ccco1`, the ratio change, negative = inhibition was inconclusive: -4.4%. With `Cc1ccc(S(=O)(=O)c2ccc(Cl)cc2)cc1S(=O)(=O)N1CCOCC1` the Potency was inconclusive: 35.5 µM [fluorescent, single point]. In the case of `COc1ccc(CCNC(=O)CCCn2nc(C)c([N+](=O)[O-])c2C)cc1OC`, the ratio change, negative = inhibition is reported as inconclusive: 5.6% [at 46 µM]. For `O=C(C[n+]1ccccc1)N/N=C/c1ccccc1[N+](=O)[O-]`, the ratio change, negative = inhibition was inconclusive: 19.9% [at 46 µM]. With `O=c1cc(N2CCN(Cc3ccccc3)CC2)c(-c2ccccc2)n[nH]1` the ratio change, negative = inhibition was inconclusive: 12%. For `Cc1ccc(C(C)(C)C)c(OCCCCN2CCCC2)c1`, the ratio change, negative = inhibition was inconclusive: 3.48%. With `O=C(CC(c1ccccc1)c1ccccc1)N1CCN(c2ccccn2)CC1` the ratio change, negative = inhibition was inconclusive: 6.76% [at 46 µM]. In the case of `CCOc1ccc(-n2c(-c3ccc(Cl)cc3)c[n+]3c2SCC3)cc1`, the ratio change, negative = inhibition is reported as inconclusive: -5.31% [at 46 µM]. With `Cc1ccc(C)c(Cn2c(=O)c3c(nc4n3CCN4c3ccc(F)cc3)n(C)c2=O)c1` the ratio change, negative = inhibition was “inactive”. For `CCC(C)(C)NC(=O)CCCSc1nc2ccccc2s1`, the Potency was inconclusive: 5.62 µM [inhibitor, partial curve, poor fit]. In the case of `CC1=NN(C(=O)COc2ccc(C)c(C)c2)C(O)(c2ccccc2)C1` (stereo not drawn), the ratio change, negative = inhibition is reported as “inactive”. For `Cc1ccc(NC(=O)C(=O)NCC(c2cccnc2)N2CCOCC2)cc1C` (stereo not drawn), the Potency was inconclusive: 35.5 µM [cytotoxic, single point]. With `O=C(Nc1cc(Sc2nc3ccccc3s2)cc([N+](=O)[O-])c1)c1cccc(F)c1F` the Potency was inconclusive: 35.5 µM [falling, single point]. With `CCOC(=O)NC(Nc1sc2c(c1C(N)=O)CCCC2)(C(=O)OCC)C(F)(F)F` (stereo not drawn) the ratio change, negative = inhibition was “inactive”. With `COc1cc2oc3ccccc3c2cc1N(CC(=O)N1CCCCC1)S(=O)(=O)c1ccc(C)cc1` the ratio change, negative = inhibition was inconclusive: 27%. With `CN(CCn1ccnc1)Cc1cn(-c2ccccc2)nc1-c1ccc2c(c1)OCO2` the ratio change, negative = inhibition was inconclusive: -1.17% [at 46 µM]. In the case of `CC(C)CC(=O)NC(c1ccccc1Cl)c1c(O)ccc2ccccc12` (stereo not drawn), the ratio change, negative = inhibition is reported as inconclusive: -34.8%. In the case of `CN(C)S(=O)(=O)N(CC(=O)NCCSCc1ccccc1Cl)c1ccccc1`, the ratio change, negative = inhibition is reported as “inactive”. In the case of `O=C(NNS(=O)(=O)c1cccc(Cl)c1)c1cc(-c2ccc(F)cc2)nc2ccccc12`, the ratio change, negative = inhibition is reported as inconclusive: 1.9% [at 46 µM]. In the case of `O=C(NC(=S)N1CCN(c2nc(-c3ccccc3)cs2)CC1)c1cccnc1`, the ratio change, negative = inhibition is reported as inconclusive: -12.5%. In the case of `CCOC(=O)/C(C#N)=C/c1cccc([N+](=O)[O-])c1`, the Potency is reported as inconclusive: 6.31 µM [activator, single point]. In the case of `COc1ccc(CN2CCN(C(=O)C3CCC(CNS(=O)(=O)c4ccc(C)cc4)CC3)CC2)c(OC)c1OC` (stereo not drawn), the ratio change, negative = inhibition is reported as inconclusive: -40.9% [at 46 µM]. In the case of `COc1cc(C(=O)NCCC(=O)NC(C)C)cc(OC)c1OC`, the ratio change, negative = inhibition is reported as “inactive”. For `CCNc1ncc2nc(-c3ccccc3)c(=O)n(C[C@H]3CCCO3)c2n1`, the ratio change, negative = inhibition was inconclusive: -21.9%. With `O=c1c2cnn(-c3ccc(F)cc3)c2ncn1Cc1ccccn1` the ratio change, negative = inhibition was inconclusive: -32.7%. In the case of `COc1cccc(C2N(c3ccccc3)CCN2c2ccccc2)c1OC`, the ratio change, negative = inhibition is reported as inconclusive: 5.22% [at 46 µM]. For `Cc1ccc(CN2CCN(/N=C/c3cccs3)CC2)cc1`, the ratio change, negative = inhibition was “inactive”. In the case of `COC(=O)c1c(C(=O)NCc2ccccc2)ncn1CC(O)COc1ccccc1` (stereo not drawn), the ratio change, negative = inhibition is reported as “inactive”. In the case of `COc1ccc(S(=O)(=O)N(CCc2ccccc2)CC(=O)N/N=C/c2ccc3c(c2)OCO3)cc1`, the ratio change, negative = inhibition is reported as inconclusive: -1.53%. For `Cc1[nH][nH]c(=O)c1C(c1ccc(-c2ccc(F)cc2)o1)c1c(C)[nH][nH]c1=O`, the Potency was inconclusive: 35.5 µM [cytotoxic, single point]. In the case of `COC(=O)CSc1nc(C)c(C(C)=O)cc1C#N`, the ratio change, negative = inhibition is reported as “inactive”. In the case of `CCSc1ccccc1C(=O)NCCc1ccccc1`, the ratio change, negative = inhibition is reported as inconclusive: 15.1% [at 46 µM]. With `Cc1ccc(-c2nnn(CC(=O)N(Cc3ccco3)C(C(=O)NC3CCCC3)c3cccs3)n2)o1` (stereo not drawn) the ratio change, negative = inhibition was “inactive”. In the case of `CCN(CC)S(=O)(=O)c1ccc(NC(=O)c2ccc(CN3CCOCC3)cc2)cc1`, the Potency is reported as inconclusive: 1.58 µM [falling, full curve]. With `NC(=O)/C=C/C(=O)Nc1ccc(Cl)cc1` the ratio change, negative = inhibition was inconclusive: -34% [at 46 µM]. In the case of `CC1CN(C(=O)c2cccc(COc3ccccc3Cl)c2)CC(C)O1` (stereo not drawn), the ratio change, negative = inhibition is reported as inconclusive: -38.3% [at 46 µM]. For `Cc1ccc2nc(N/C(=N/S(=O)(=O)c3ccc(F)cc3)c3ccccc3)sc2c1`, the ratio change, negative = inhibition was inconclusive: -33% [at 46 µM]. In the case of `NS(=O)(=O)c1ccc(NC(=O)CN2CCCC2)cc1`, the ratio change, negative = inhibition is reported as inconclusive: -12.3% [at 46 µM]. For `CCCOc1cccc(OCCSc2nc(C)cc(=O)[nH]2)c1`, the Potency was inconclusive: 35.5 µM [fluorescent, single point]. With `O=S(=O)(Nc1ccc(-c2csc(-c3ccccc3)n2)cc1)c1ccccc1` the Potency was inconclusive: 35.5 µM [inhibitor, single point]. In the case of `COc1ccccc1NC(=O)C1=C(C)Nc2c(C(=O)Nc3ccc(F)cc3)cnn2C1c1ccc(Cl)cc1` (stereo not drawn), the ratio change, negative = inhibition is reported as inconclusive: -15.5% [at 46 µM]. For `CC1(C)Nc2ccc(O)cc2-c2c1ssc2=S`, the ratio change, negative = inhibition was “inactive”. With `COc1ccccc1N(C)S(=O)(=O)c1ccc(C(=O)OCC(=O)N(C)c2ccccc2)cc1` the ratio change, negative = inhibition was “inactive”. With `CCOC(=O)C1=C(C)N(Cc2ccccc2)C(=O)NC1c1ccc(OC)cc1` (stereo not drawn) the ratio change, negative = inhibition was “inactive”. In the case of `O=C(C1CCN(Cc2cn[nH]c2-c2ccc(F)cc2F)CC1)N1CCOCC1`, the ratio change, negative = inhibition is reported as inconclusive: 24.7% [at 46 µM]. For `CC1(C)OC2OC(C(=O)N/N=C/c3cc(Br)ccc3O)C3OC(C)(C)OC3C2O1` (stereo not drawn), the ratio change, negative = inhibition was inconclusive: -32.2%. For `COc1ccc(CCN=CC2=C(O)CC(C)(C)CC2=O)cc1`, the ratio change, negative = inhibition was inconclusive: 2.59%. With `CC(C)CN1C(=O)C(=O)N(CC(=O)N2CCC(Cc3ccccc3)CC2)C1=O` the ratio change, negative = inhibition was inconclusive: -9.41% [at 46 µM]. For `CC(=O)Nc1c(C)nn(-c2ccccc2)c1N1CCC(C(=O)NCc2ccc(Cl)cc2)CC1`, the ratio change, negative = inhibition was inconclusive: -8.88% [at 46 µM].
